Our source for the binding values is doi:10.1101/870998.

Amino acid sequences for entries named in this document (tags omitted).
UniProt Q15691: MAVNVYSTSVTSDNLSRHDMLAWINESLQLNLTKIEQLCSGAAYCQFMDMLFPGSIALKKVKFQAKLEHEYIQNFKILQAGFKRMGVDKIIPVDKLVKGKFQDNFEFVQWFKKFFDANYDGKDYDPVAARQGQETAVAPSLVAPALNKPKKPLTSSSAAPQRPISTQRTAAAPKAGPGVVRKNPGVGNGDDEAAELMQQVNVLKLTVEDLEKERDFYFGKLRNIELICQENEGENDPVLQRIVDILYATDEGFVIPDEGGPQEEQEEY

No constants are given. Whether binding was seen depends on the method and setting. In cells and extracts the contact can be indirect. Tags and fused reporters may be left off the sequences shown.

Holding throughout (test): co-IP
The target in one test is T1, GFP-iASPP-SRNN (UniProt Q8WUF5).
T1 sequence: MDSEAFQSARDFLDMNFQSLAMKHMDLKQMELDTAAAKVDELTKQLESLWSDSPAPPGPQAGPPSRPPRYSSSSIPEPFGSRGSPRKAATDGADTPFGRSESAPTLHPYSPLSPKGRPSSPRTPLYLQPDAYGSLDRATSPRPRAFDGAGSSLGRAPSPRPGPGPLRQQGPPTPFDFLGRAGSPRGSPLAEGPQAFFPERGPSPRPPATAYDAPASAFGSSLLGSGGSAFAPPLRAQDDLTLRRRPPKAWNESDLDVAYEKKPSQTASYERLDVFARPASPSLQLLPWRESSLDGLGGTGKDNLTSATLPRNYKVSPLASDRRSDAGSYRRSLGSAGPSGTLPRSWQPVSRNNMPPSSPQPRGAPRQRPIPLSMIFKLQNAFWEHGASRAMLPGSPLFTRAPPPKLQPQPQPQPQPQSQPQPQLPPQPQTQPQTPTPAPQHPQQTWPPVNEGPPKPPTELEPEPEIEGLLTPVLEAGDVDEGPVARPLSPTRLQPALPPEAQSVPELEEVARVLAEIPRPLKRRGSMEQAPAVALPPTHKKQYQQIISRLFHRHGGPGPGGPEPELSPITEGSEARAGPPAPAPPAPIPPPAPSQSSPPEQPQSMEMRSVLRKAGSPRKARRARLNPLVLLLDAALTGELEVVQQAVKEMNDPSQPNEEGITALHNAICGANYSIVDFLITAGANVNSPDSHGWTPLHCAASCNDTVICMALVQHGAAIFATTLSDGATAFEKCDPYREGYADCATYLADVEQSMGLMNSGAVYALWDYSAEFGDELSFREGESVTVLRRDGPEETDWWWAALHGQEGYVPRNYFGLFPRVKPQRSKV

Test [1] addresses T2, GFP-iASPP C-terminal region (Cter, 600-828), Q8WUF5.
T2 chain: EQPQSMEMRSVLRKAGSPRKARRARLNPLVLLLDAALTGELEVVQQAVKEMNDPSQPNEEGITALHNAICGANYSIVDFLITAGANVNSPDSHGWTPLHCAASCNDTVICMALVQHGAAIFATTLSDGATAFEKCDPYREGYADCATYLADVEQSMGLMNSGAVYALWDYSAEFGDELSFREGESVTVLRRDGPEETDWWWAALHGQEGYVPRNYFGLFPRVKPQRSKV
Conditions: remark: other sources report otherwise.

The target of another test is T3, GFP-iASPP 1-290, Q8WUF5.
T3 chain: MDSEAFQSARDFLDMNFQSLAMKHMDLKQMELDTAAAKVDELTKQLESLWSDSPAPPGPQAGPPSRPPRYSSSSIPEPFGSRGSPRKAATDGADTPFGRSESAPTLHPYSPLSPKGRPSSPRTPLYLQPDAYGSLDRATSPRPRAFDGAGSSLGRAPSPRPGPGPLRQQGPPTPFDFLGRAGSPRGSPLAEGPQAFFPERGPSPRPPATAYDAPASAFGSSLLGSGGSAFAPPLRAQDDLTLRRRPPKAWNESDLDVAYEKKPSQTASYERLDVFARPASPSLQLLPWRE
Conditions: remark: other sources report otherwise.

With “Strep-FLAG (SF)-tagged EB1 (from UniProt Q15691 1-268)”, the binding entry with GFP-iASPP-SRNN is on record as “no binding”.

B1: SF-iASPP 1-290, Q8WUF5 1-290 (domain or fragment)
chain: MDSEAFQSARDFLDMNFQSLAMKHMDLKQMELDTAAAKVDELTKQLESLWSDSPAPPGPQAGPPSRPPRYSSSSIPEPFGSRGSPRKAATDGADTPFGRSESAPTLHPYSPLSPKGRPSSPRTPLYLQPDAYGSLDRATSPRPRAFDGAGSSLGRAPSPRPGPGPLRQQGPPTPFDFLGRAGSPRGSPLAEGPQAFFPERGPSPRPPATAYDAPASAFGSSLLGSGGSAFAPPLRAQDDLTLRRRPPKAWNESDLDVAYEKKPSQTASYERLDVFARPASPSLQLLPWRE
For the molecule B1, in test [1], the binding result is “no binding”.

B2: SF-iASPP 600-828, Q8WUF5 600-828 (domain or fragment)
chain: EQPQSMEMRSVLRKAGSPRKARRARLNPLVLLLDAALTGELEVVQQAVKEMNDPSQPNEEGITALHNAICGANYSIVDFLITAGANVNSPDSHGWTPLHCAASCNDTVICMALVQHGAAIFATTLSDGATAFEKCDPYREGYADCATYLADVEQSMGLMNSGAVYALWDYSAEFGDELSFREGESVTVLRRDGPEETDWWWAALHGQEGYVPRNYFGLFPRVKPQRSKV
Consider B2, for which the binding entry with GFP-iASPP 1-290, Q8WUF5 is recorded as “no binding”.
